Results from paper PMC11066047.
Results are given in words; binding and its absence hold for the method and conditions named. Binding seen in cells or lysates may run through a third protein. Some entries that bind do so weakly or less than the wild type. For some assays here: Where a sequence is shown, tags or fusion partners need not be part of it. Blank lines part the entries; values can stand above or below the binder they belong to.

Amino acid sequences for entries named in this document (tags omitted).
UniProt P38873: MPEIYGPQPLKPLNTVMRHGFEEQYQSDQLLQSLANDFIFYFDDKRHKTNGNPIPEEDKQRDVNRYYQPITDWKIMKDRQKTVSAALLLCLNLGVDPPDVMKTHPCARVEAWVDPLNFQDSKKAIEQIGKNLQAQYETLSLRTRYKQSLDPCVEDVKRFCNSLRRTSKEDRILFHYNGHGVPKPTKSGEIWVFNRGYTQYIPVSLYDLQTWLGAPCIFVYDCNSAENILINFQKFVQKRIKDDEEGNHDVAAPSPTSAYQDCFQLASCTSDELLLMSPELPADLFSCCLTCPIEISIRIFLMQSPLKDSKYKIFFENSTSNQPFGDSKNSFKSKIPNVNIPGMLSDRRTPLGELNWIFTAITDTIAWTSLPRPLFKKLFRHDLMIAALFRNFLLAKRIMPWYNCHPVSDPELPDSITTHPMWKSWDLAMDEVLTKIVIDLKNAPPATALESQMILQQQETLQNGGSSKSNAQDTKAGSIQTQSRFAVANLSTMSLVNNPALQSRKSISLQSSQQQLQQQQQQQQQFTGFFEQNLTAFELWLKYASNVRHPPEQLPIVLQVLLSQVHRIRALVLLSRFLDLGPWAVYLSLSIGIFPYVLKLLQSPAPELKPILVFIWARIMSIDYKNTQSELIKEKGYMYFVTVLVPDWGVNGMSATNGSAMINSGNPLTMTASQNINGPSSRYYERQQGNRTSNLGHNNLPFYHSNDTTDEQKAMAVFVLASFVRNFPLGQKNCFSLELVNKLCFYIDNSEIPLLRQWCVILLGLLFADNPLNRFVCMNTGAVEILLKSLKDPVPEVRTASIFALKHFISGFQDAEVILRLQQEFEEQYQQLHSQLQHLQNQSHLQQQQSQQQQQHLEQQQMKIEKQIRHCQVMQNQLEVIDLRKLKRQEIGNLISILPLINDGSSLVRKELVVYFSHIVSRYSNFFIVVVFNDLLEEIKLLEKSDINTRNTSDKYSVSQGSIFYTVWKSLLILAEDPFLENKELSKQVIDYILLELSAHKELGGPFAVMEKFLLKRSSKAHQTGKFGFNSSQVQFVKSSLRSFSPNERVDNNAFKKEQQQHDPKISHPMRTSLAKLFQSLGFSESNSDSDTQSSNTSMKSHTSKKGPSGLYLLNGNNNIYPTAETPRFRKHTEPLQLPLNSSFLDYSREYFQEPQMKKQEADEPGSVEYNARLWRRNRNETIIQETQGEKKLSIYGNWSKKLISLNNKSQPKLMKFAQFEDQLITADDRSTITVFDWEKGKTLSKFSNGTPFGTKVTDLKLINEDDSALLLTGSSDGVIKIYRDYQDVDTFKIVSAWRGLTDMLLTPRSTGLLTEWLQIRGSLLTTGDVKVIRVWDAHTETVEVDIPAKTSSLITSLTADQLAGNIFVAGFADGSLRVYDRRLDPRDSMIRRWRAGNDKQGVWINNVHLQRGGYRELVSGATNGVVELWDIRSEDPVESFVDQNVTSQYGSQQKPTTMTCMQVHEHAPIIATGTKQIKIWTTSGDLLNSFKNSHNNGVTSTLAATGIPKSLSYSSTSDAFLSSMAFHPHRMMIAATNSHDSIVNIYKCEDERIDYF
UniProt P35169: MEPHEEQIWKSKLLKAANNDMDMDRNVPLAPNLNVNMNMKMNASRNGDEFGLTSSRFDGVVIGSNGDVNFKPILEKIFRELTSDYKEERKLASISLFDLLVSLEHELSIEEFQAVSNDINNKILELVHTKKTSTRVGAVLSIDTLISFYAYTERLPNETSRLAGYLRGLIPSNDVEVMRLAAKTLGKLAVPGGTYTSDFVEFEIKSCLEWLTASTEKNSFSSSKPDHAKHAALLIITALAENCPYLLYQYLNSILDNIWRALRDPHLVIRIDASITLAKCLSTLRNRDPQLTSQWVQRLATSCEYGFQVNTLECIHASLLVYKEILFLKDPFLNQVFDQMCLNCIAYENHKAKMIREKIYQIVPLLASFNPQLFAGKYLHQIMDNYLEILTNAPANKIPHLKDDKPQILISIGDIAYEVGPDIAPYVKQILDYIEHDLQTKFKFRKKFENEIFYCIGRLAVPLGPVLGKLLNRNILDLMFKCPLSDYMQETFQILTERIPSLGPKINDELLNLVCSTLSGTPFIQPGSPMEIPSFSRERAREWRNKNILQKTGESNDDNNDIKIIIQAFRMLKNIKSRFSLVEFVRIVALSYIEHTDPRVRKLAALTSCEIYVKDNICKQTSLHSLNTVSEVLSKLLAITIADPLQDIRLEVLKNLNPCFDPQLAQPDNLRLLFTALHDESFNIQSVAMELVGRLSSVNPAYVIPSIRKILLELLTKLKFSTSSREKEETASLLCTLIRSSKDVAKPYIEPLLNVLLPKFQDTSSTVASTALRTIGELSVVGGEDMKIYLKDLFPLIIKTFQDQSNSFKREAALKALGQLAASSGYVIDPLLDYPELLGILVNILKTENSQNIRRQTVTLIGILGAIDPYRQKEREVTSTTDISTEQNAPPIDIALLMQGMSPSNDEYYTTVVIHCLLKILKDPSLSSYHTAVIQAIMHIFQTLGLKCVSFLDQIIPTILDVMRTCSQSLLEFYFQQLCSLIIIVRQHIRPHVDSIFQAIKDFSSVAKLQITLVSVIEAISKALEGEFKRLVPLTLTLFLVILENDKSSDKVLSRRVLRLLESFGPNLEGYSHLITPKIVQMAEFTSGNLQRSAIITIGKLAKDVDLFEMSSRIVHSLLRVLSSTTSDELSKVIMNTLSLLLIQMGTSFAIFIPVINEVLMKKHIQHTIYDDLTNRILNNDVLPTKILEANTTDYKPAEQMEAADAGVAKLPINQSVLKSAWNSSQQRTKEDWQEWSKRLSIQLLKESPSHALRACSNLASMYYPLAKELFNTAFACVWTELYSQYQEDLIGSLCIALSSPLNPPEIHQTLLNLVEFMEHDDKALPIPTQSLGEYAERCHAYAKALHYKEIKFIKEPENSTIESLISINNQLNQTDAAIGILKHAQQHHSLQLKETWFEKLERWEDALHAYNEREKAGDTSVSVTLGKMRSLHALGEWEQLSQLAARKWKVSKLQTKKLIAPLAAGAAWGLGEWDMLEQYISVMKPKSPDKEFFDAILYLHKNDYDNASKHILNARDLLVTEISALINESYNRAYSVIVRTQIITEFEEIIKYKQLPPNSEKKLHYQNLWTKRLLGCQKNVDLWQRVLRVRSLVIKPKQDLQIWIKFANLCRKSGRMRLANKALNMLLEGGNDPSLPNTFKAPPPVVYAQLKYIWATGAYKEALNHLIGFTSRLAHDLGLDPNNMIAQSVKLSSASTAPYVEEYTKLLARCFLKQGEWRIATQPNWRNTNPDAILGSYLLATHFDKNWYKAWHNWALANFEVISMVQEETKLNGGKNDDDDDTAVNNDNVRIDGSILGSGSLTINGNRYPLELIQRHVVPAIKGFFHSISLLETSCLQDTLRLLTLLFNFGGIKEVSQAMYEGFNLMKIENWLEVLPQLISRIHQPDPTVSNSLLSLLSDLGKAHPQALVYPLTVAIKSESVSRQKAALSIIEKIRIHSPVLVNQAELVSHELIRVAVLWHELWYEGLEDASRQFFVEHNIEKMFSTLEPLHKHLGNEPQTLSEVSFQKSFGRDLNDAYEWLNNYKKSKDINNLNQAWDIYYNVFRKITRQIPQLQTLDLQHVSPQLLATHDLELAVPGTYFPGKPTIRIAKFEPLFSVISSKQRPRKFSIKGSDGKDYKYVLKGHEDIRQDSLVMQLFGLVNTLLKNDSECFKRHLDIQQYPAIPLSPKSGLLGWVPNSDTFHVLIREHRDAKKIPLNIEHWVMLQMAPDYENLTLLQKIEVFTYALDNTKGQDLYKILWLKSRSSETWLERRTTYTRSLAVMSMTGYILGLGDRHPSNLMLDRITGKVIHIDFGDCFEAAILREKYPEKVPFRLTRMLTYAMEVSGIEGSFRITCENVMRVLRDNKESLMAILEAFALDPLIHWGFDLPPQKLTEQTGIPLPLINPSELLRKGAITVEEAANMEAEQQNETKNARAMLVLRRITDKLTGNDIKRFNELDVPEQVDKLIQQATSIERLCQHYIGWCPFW
UniProt Q04338: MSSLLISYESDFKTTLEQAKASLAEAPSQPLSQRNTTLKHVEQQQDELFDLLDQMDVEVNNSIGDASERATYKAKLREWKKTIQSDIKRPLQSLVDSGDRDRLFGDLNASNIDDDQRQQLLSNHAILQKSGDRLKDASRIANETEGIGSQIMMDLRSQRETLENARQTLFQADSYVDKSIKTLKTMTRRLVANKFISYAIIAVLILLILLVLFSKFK

Legend:
Assay in all cases: cross-linking; XL-MS on isolated intact yeast vacuoles; 1 mM Azide-A-DSBSO (lysine-lysine), 20 min at room temperature, 10 mM HEPES/KOH pH 7.4 buffers; 2% FDR at unique lysine-lysine connection level
[1] = target: T1, Lst8 (Saccharomyces cerevisiae (endogenous in isolated vacuoles)) (UniProt P41318)
T1 sequence: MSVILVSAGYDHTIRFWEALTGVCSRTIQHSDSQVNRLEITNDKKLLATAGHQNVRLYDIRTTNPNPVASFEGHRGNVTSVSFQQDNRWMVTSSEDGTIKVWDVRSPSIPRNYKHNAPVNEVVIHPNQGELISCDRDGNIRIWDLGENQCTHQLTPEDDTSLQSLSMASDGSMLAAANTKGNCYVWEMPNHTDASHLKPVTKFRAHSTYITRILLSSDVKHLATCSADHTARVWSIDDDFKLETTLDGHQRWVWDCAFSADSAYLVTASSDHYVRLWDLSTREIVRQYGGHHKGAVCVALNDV

[2] = target: Kog1 (Saccharomyces cerevisiae (endogenous in isolated vacuoles)) (UniProt P38873)
[3] = target: Tor1 (Saccharomyces cerevisiae (endogenous in isolated vacuoles)) (UniProt P35169)
[4] = target: T2, Vam3 (Saccharomyces cerevisiae (endogenous in isolated vacuoles)) (UniProt Q12241)
T2 sequence: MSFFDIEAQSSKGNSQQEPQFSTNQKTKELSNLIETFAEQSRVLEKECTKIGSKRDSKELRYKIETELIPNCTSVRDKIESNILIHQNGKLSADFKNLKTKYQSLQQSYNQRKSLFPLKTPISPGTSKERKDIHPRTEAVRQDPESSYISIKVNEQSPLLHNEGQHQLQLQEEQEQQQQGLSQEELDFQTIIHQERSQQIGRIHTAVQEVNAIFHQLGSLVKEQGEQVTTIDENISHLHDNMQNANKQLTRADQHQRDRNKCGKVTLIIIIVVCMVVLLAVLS

[5] = target: Vti1 (Saccharomyces cerevisiae (endogenous in isolated vacuoles)) (UniProt Q04338)

binding [1]: binds
binding [2]: binds
binding [3]: binds
B1: Pib2 (protein, UniProt P53191 1-635)
chain: MTALHSVSKTPAIKEEEEDGDERDGRGVPLGPRNHDYRGRKGDEESGADTVTSPITFEKKKIAPRASTHSEQSILSSISLKSMVNQHRQQQLQQESSTGAGTGFVDRKQQIQSPAMVSILRKNSAEENVRSSHSSKLGEGQIDGRKASASKEIGKTLPFTDDQRSNPELDPTNSVVDVSRGKNTKSKTVFNELEDDADDDDEVRQKNLTTQALRKLSSFKMNASSNLRLSKENKAKESSSSSTSSVSSSSTSKVENIVDKLTTTNSSSMSQLRFGNTNVIIDSVNHAAKPPHQQMLRKPSLEFLPQPASSTNLNFNSNKHKSNVRQISNPKKPLYIPAVLRKVSETNITNDDLLNATLSSYYKKASNLEHGFNPSKSQSASVQNANNLRIISSQSSVQSNTSSILESYKNKISSYLFPNSIPNSDRINLIPTISNRNSARVNPPTKDHWIPDSKRNSCRYCHKPFTLWERKHHCRHCGDIFCQDHLRHWLYLDSQANFIMINELNNGGINGGGTLCKICDDCLVEYENLSTTNHNANTNEDNINVEEGEDDDNDNRKKLRNYYKNRQMNALFRPKKGGSSQEHATVDRDTTTPIQVKSNDEEADNENTGGEQEEGNDVLGSVIGSVPANWNWSSF

binding [4]: binds
binding [5]: binds
B2: Vam7 (protein, UniProt P32912 1-316)
chain: MAANSVGKMSEKLRIKVDDVKINPKYVLYGVSTPNKRLYKRYSEFWKLKTRLERDVGSTIPYDFPEKPGVLDRRWQRRYDDPEMIDERRIGLERFLNELYNDRFDSRWRDTKIAQDFLQLSKPNVSQEKSQQHLETADEVGWDEMIRDIKLDLDKESDGTPSVRGALRARTKLHKLRERLEQDVQKKSLPSTEVTRRAALLRSLLKECDDIGTANIAQDRGRLLGVATSDNSSTTEVQGRTNNDLQQGQMQMVRDQEQELVALHRIIQAQRGLALEMNEELQTQNELLTALEDDVDNTGRRLQIANKKARHFNNSA
